# Test results taken from patent US20250388673A1.
# Residue numbers refer to the chain shown, from its start. These are yes or no findings as the source states them, for the method shown. A result given as binding can be weak or reduced; the word gives no strength.
# B1: HFB6-4hz21-hG1 (antibody, human IgG1, V domains shown)
# VH: EVQLVESGGGLVQPGRSLRLSCTTSGFNIKDTYIHWFRQAPGKGLEWVGRNDPANGNTKYTASFKGRATISADGSKSIAYLQMNSLKTEDTAVYYCASYEGYYERFGYWGQGTLVTVSS
# VL: DIVMTQSPDSLAVSLGERATINCKSSQSLLDRDGKTYLNWLQQKPGQSPKRLIYLVSKLDSGVPDRFSGSGSGTDFTLTISSLQAEDLAVYYCWQDTHFPYTFGQGTKLEIK
# B2: HFB6-4hz22-hG1 (antibody, human IgG1, V domains shown)
# VH: EVQLVESGGGLVQPGGSLKLSCATSGFNIKDTYIHWVRQASGKGLEWIGRNDPANGNTKYAASFKGRATISADDSKNTAYLQLNSLKTEDTAVYYCASYEGYYERFGYWGQGTLVTVSS
# VL: B1 VL
# B3: HFB6-4hz23-hG1 (antibody, human IgG1, V domains shown)
# VH: QVQLQESGPGLVKPSGTLSLTCAVSGFNIKDTYIHWVRQPPGKGLEWIGRNDPANGNTKYNPSFKSRATISADKSKNQASLKLSSVTAADTAVYYCASYEGYYERFGYWGQGTLVTVSS
# VL: B1 VL
# B4: HFB6-4hz24-hG1 (antibody, human IgG1, V domains shown)
# VH: EVQLVQSGAEVKKPGESLKISCKTSGFNIKDTYIHWVRQMPGKGLEWIGRNDPANGNTKYSPSFQGQVTISADKSISTAYLQLSSLKASDTAMYYCASYEGYYERFGYWGQGTLVTVSS
# VL: B1 VL
# B5: HFB6-5hz1-hG1 (antibody, human IgG1, V domains shown)
# VH: QVQLVQSGAEVKKPGSSVKVSCKASGVNIKDTYMYWVRQAPGQGLEWIGRIDPANGYARYAQKFQGRATITADESTSTAYMELSSLRSEDTAVYYCAVYDGYYESFDVWGQGTLVTVSS
# VL: DIQMTQSPSSLSASVGDRVTITCRSSQSLLDSDGKSYLNWLQQKPGKAPKRLIYLVSKLDSGVPSRFSGSGSGTDFTLTISSLQPEDFATYYCWQGTLFPRTFGQGTKLEIK
# B6: HFB6-5hz2-hG1 (antibody, human IgG1, V domains shown)
# VH: B5 VH with S16A, A58T, E74T, A79V
# VL: B5 VL
# B7: HFB6-5hz3-hG1 (antibody, human IgG1, V domains shown)
# VH: EVQLVESGGGLVQPGRSLRLSCTASGVNIKDTYMYWVRQAPGKGLEWVGRIDPANGYTRYTASFKGRATISADGSKSIAYLQMNSLKTEDTAVYYCAVYDGYYESFDVWGQGTLVTVSS
# VL: B5 VL
# B8: HFB6-5hz4-hG1 (antibody, human IgG1, V domains shown)
# VH: B7 VH with R16G, R19K, T23A, P41S, V48I, T61A, G74D, S77N, I78T, M83L
# VL: B5 VL
# B9: HFB6-5hz5-hG1 (antibody, human IgG1, V domains shown)
# VH: QVQLQESGPGLVKPSGTLSLTCAASGVNIKDTYMYWVRQPPGKGLEWIGRIDPANGYTRYNPSFKSRATISADKSKNQASLKLSSVTAADTAVYYCAVYDGYYESFDVWGQGTLVTVSS
# VL: B5 VL
# B10: HFB6-5hz6-hG1 (antibody, human IgG1, V domains shown)
# VH: EVQLVQSGAEVKKPGESLKISCKGSGVNIKDTYMYWVRQMPGKGLEWIGRIDPANGYTRYSPSFQGQVTISADKSISTAYLQLSSLKASDTAMYYCAVYDGYYESFDVWGQGTLVTVSS
# VL: B5 VL
# B11: HFB6-5hz7-hG1 (antibody, human IgG1, V domains shown)
# VH: B5 VH
# VL: DVVMTQSPLSLPVTLGQPASISCRSSQSLLDSDGKTYLNWLQQRPGQSPRRLIYLVSKRDSGVPDRFSGSGSGTDFTLKISRVEAEDLGVYYCWQGTLFPRTFGQGTKLEIK
# B12: HFB6-5hz8-hG1 (antibody, human IgG1, V domains shown)
# VH: B5 VH with S16A, A58T, E74T, A79V
# VL: B11 VL
# B13: HFB6-5hz9-hG1 (antibody, human IgG1, V domains shown)
# VH: B7 VH
# VL: B11 VL
# B14: HFB6-5hz10-hG1 (antibody, human IgG1, V domains shown)
# VH: B7 VH with R16G, R19K, T23A, P41S, V48I, T61A, G74D, S77N, I78T, M83L
# VL: B11 VL
# B15: HFB6-5hz11-hG1 (antibody, human IgG1, V domains shown)
# VH: B9 VH
# VL: B11 VL
# B16: HFB6-5hz12-hG1 (antibody, human IgG1, V domains shown)
# VH: B10 VH
# VL: B11 VL
# B17: HFB6-5hz13-hG1 (antibody, human IgG1, V domains shown)
# VH: B5 VH
# VL: EIVLTQSPGTLSVSPGERATISCRSSQSLLDSDGKTYLNWLQQKPGQAPRRLIYLVSKRDTGVPDRFSGSGSGTDFTLTISRVEPEDFAVYYCWQGTLFPRTFGQGTKLEIK
# B18: HFB6-5hz14-hG1 (antibody, human IgG1, V domains shown)
# VH: B5 VH with S16A, A58T, E74T, A79V
# VL: B17 VL
# B19: HFB6-5hz15-hG1 (antibody, human IgG1, V domains shown)
# VH: B7 VH
# VL: B17 VL
# B20: HFB6-5hz16-hG1 (antibody, human IgG1, V domains shown)
# VH: B7 VH with R16G, R19K, T23A, P41S, V48I, T61A, G74D, S77N, I78T, M83L
# VL: B17 VL
# B21: HFB6-5hz17-hG1 (antibody, human IgG1, V domains shown)
# VH: B9 VH
# VL: B17 VL
# B22: HFB6-4hz1-hG1 (antibody, V domains shown)
# VH: QVQLVQSGAEVKKPGSSVKVSCKTSGFNIKDTYIHWVRQAPGQGLEWIGRNDPANGNTKYAQKFQGRATITADESTSTAYMELSSLRSEDTAVYYCASYEGYYERFGYWGQGTLVTVSS
# VL: B5 VL with S32R, G96D, L98H, R101Y
# B23: HFB6-5hz18-hG1 (antibody, human IgG1, V domains shown)
# VH: B10 VH
# VL: B17 VL
# B24: HFB6-5hz19-hG1 (antibody, human IgG1, V domains shown)
# VH: B5 VH
# VL: B1 VL with R32S, L83V, D96G, H98L, Y101R
# B25: HFB6-5hz20-hG1 (antibody, human IgG1, V domains shown)
# VH: B5 VH with S16A, A58T, E74T, A79V
# VL: B1 VL with R32S, L83V, D96G, H98L, Y101R
# B26: HFB6-5hz21-hG1 (antibody, human IgG1, V domains shown)
# VH: B7 VH
# VL: B1 VL with R32S, L83V, D96G, H98L, Y101R
# B27: HFB6-5hz22-hG1 (antibody, human IgG1, V domains shown)
# VH: B7 VH with R16G, R19K, T23A, P41S, V48I, T61A, G74D, S77N, I78T, M83L
# VL: B1 VL with R32S, L83V, D96G, H98L, Y101R
# B28: HFB6-5hz23-hG1 (antibody, human IgG1, V domains shown)
# VH: B9 VH
# VL: B1 VL with R32S, L83V, D96G, H98L, Y101R
# B29: HFB6-5hz24-hG1 (antibody, human IgG1, V domains shown)
# VH: B10 VH
# VL: B1 VL with R32S, L83V, D96G, H98L, Y101R
# B30: HFB6-4hz2-hG1 (antibody, human IgG1, V domains shown)
# VH: B22 VH with S16A, A68V, I70M, E74T, A79V
# VL: B5 VL with S32R, G96D, L98H, R101Y
# Target: cynomolgus BTLA (cynomolgus monkey)
# Experiment: flow cytometry, Expi293 cells overexpressing cynomolgus BTLA
row,Binder,binding
1,B1,binds
2,B2,binds
3,B3,binds
4,B4,binds
5,B5,binds
6,B6,binds
7,B7,binds
8,B8,binds
9,B9,binds
10,B10,binds
11,B11,binds
12,B12,binds
13,B13,binds
14,B14,binds
15,B15,binds
16,B16,binds
17,B17,binds
18,B18,binds
19,B19,binds
20,B20,binds
21,B21,binds
22,B22,binds
23,B23,binds
24,B24,binds
25,B25,binds
26,B26,binds
27,B27,binds
28,B28,binds
29,B29,binds
30,B30,binds
